Measurements published in the supplement of paper PMC8728848.
The other results are listed elsewhere or left out.

Columns and labels:
Assay in all cases: glycan array binding signal (z-score within array); higher = stronger binding
Details in all cases: glycan notation: IUPAC condensed, linker removed
[1] = biological target: GlcNAc(b1-2)Gal(b1-3)GalNAc
Procedure, shortened: (§1)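 Glycan array binding is given as a within-array Z-score, which can be read as non-binding when negative. The arrays, 3228 of them, came from the Consortium for Functional Glycomics database and were retained only where the protein sequence was available. Z-scores were averaged across arrays of the same protein sequence at different concentrations or buffers and across linkers.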

[2] = biological target: GlcNAc(b1-2)Man(a1-3)[GlcNAc(b1-2)Man(a1-6)]Man(b1-4)GlcNAc(b1-4)GlcNAc
Procedure, shortened: as §1

[3] = biological target: GlcNAc(b1-2)Man(a1-3)[GlcNAc(b1-2)Man(a1-6)]Man(b1-4)GlcNAc(b1-4)[Fuc(a1-6)]GlcNAc
Procedure, shortened: as §1

[4] = biological target: GlcNAc(b1-2)Man(a1-3)[GlcNAc(b1-4)][GlcNAc(b1-2)Man(a1-6)]Man(b1-4)GlcNAc(b1-4)GlcNAc
Procedure, shortened: as §1

[5] = biological target: GlcNAc(b1-2)Man(a1-3)[GlcNAc(b1-4)][GlcNAc(b1-2)Man(a1-6)]Man(b1-4)GlcNAc(b1-4)[Fuc(a1-6)]GlcNAc
Procedure, shortened: as §1

[6] = biological target: GlcNAc(b1-2)[GlcNAc(b1-4)]Man(a1-3)[GlcNAc(b1-2)Man(a1-6)]Man(b1-4)GlcNAc(b1-4)GlcNAc
Procedure, shortened: as §1

[7] = biological target: GlcNAc(b1-2)[GlcNAc(b1-4)]Man(a1-3)[GlcNAc(b1-4)][GlcNAc(b1-2)Man(a1-6)]Man(b1-4)GlcNAc(b1-4)GlcNAc
Procedure, shortened: as §1

[8] = biological target: GlcNAc(b1-2)[GlcNAc(b1-4)]Man(a1-3)[GlcNAc(b1-4)][GlcNAc(b1-2)[GlcNAc(b1-6)]Man(a1-6)]Man(b1-4)GlcNAc(b1-4)GlcNAc
Procedure, shortened: as §1

[9] = biological target: GlcNAc(b1-2)[GlcNAc(b1-4)]Man(a1-3)[GlcNAc(b1-4)][GlcNAc(b1-2)[GlcNAc(b1-6)]Man(a1-6)]Man(b1-4)GlcNAc(b1-4)[Fuc(a1-6)]GlcNAc
Procedure, shortened: as §1

[10] = biological target: GlcNAc(b1-2)[GlcNAc(b1-6)]Man(a1-6)[GlcNAc(b1-2)Man(a1-3)]Man(b1-4)GlcNAc(b1-4)GlcNAc
Procedure, shortened: as §1

[11] = biological target: GlcNAc(b1-2)[GlcNAc(b1-6)]Man(a1-6)[GlcNAc(b1-2)Man(a1-3)]Man(b1-4)GlcNAc(b1-4)[Fuc(a1-6)]GlcNAc
Procedure, shortened: as §1

[12] = biological target: GlcNAc(b1-2)[GlcNAc(b1-6)]Man(a1-6)[GlcNAc(b1-4)][GlcNAc(b1-2)Man(a1-3)]Man(b1-4)GlcNAc(b1-4)GlcNAc
Procedure, shortened: as §1

[13] = biological target: GlcNAc(b1-3)Fuc
Procedure, shortened: as §1

[14] = biological target: GlcNAc(b1-3)Gal
Procedure, shortened: as §1

[15] = biological target: GlcNAc(b1-3)Gal(b1-3)GalNAc
Procedure, shortened: as §1

[16] = biological target: GlcNAc(b1-3)Gal(b1-4)Glc
Procedure, shortened: as §1

[17] = biological target: GlcNAc(b1-3)Gal(b1-4)GlcNAc
Procedure, shortened: as §1

[18] = biological target: GlcNAc(b1-3)Gal(b1-4)GlcNAc(b1-2)Man(a1-3)[GlcNAc(b1-3)Gal(b1-4)GlcNAc(b1-2)Man(a1-6)]Man(b1-4)GlcNAc(b1-4)GlcNAc
Procedure, shortened: as §1

[19] = biological target: GlcNAc(b1-3)Gal(b1-4)GlcNAc(b1-2)Man(a1-3)[GlcNAc(b1-3)Gal(b1-4)GlcNAc(b1-2)Man(a1-6)]Man(b1-4)GlcNAc(b1-4)[Fuc(a1-6)]GlcNAc
Procedure, shortened: as §1

[20] = biological target: GlcNAc(b1-3)Gal(b1-4)GlcNAc(b1-2)[GlcNAc(b1-3)Gal(b1-4)GlcNAc(b1-6)]Man(a1-6)[GlcNAc(b1-3)Gal(b1-4)GlcNAc(b1-2)Man(a1-3)]Man(b1-4)GlcNAc(b1-4)GlcNAc
Procedure, shortened: as §1

[21] = biological target: GlcNAc(b1-3)Gal(b1-4)GlcNAc(b1-3)Gal(b1-4)GlcNAc
Procedure, shortened: as §1

[22] = biological target: GlcNAc(b1-3)Gal(b1-4)GlcNAc(b1-3)Gal(b1-4)GlcNAc(b1-2)Man(a1-3)[GlcNAc(b1-3)Gal(b1-4)GlcNAc(b1-3)Gal(b1-4)GlcNAc(b1-2)Man(a1-6)]Man(b1-4)GlcNAc(b1-4)GlcNAc
Procedure, shortened: as §1

[23] = biological target: GlcNAc(b1-3)Gal(b1-4)GlcNAc(b1-3)Gal(b1-4)GlcNAc(b1-2)Man(a1-3)[GlcNAc(b1-3)Gal(b1-4)GlcNAc(b1-3)Gal(b1-4)GlcNAc(b1-2)Man(a1-6)]Man(b1-4)GlcNAc(b1-4)[Fuc(a1-6)]GlcNAc
Procedure, shortened: as §1

[24] = biological target: GlcNAc(b1-3)Gal(b1-4)GlcNAc(b1-3)Gal(b1-4)GlcNAc(b1-2)[GlcNAc(b1-3)Gal(b1-4)GlcNAc(b1-3)Gal(b1-4)GlcNAc(b1-6)]Man(a1-6)[GlcNAc(b1-3)Gal(b1-4)GlcNAc(b1-3)Gal(b1-4)GlcNAc(b1-2)Man(a1-3)]Man(b1-4)GlcNAc(b1-4)[Fuc(a1-6)]GlcNAc
Procedure, shortened: as §1

[25] = biological target: GlcNAc(b1-3)Gal(b1-4)GlcNAc(b1-3)Gal(b1-4)GlcNAc(b1-3)Gal(b1-4)GlcNAc(b1-2)Man(a1-3)[GlcNAc(b1-3)Gal(b1-4)GlcNAc(b1-3)Gal(b1-4)GlcNAc(b1-3)Gal(b1-4)GlcNAc(b1-2)Man(a1-6)]Man(b1-4)GlcNAc(b1-4)GlcNAc
Procedure, shortened: as §1

[26] = biological target: GlcNAc(b1-3)Gal(b1-4)GlcNAc(b1-3)Gal(b1-4)GlcNAc(b1-3)Gal(b1-4)GlcNAc(b1-2)Man(a1-3)[GlcNAc(b1-3)Gal(b1-4)GlcNAc(b1-3)Gal(b1-4)GlcNAc(b1-3)Gal(b1-4)GlcNAc(b1-2)Man(a1-6)]Man(b1-4)GlcNAc(b1-4)[Fuc(a1-6)]GlcNAc
Procedure, shortened: as §1

[27] = biological target: GlcNAc(b1-3)Gal(b1-4)GlcNAc(b1-3)Gal(b1-4)GlcNAc(b1-3)Gal(b1-4)GlcNAc(b1-2)[GlcNAc(b1-3)Gal(b1-4)GlcNAc(b1-3)Gal(b1-4)GlcNAc(b1-3)Gal(b1-4)GlcNAc(b1-6)]Man(a1-6)[GlcNAc(b1-3)Gal(b1-4)GlcNAc(b1-3)Gal(b1-4)GlcNAc(b1-3)Gal(b1-4)GlcNAc(b1-2)Man(a1-3)]Man(b1-4)GlcNAc(b1-4)[Fuc(a1-6)]GlcNAc
Procedure, shortened: as §1

[28] = biological target: GlcNAc(b1-3)Gal(b1-4)GlcNAc(b1-3)Gal(b1-4)GlcNAc(b1-3)Gal(b1-4)GlcNAc(b1-3)Gal(b1-4)GlcNAc(b1-2)Man(a1-3)[GlcNAc(b1-3)Gal(b1-4)GlcNAc(b1-3)Gal(b1-4)GlcNAc(b1-3)Gal(b1-4)GlcNAc(b1-3)Gal(b1-4)GlcNAc(b1-2)Man(a1-6)]Man(b1-4)GlcNAc(b1-4)GlcNAc
Procedure, shortened: as §1

[29] = biological target: GlcNAc(b1-3)Gal(b1-4)GlcNAc(b1-3)Gal(b1-4)GlcNAc(b1-3)Gal(b1-4)GlcNAc(b1-3)Gal(b1-4)GlcNAc(b1-2)Man(a1-3)[GlcNAc(b1-3)Gal(b1-4)GlcNAc(b1-3)Gal(b1-4)GlcNAc(b1-3)Gal(b1-4)GlcNAc(b1-3)Gal(b1-4)GlcNAc(b1-2)Man(a1-6)]Man(b1-4)GlcNAc(b1-4)[Fuc(a1-6)]GlcNAc
Procedure, shortened: as §1

[30] = biological target: GlcNAc(b1-3)Gal(b1-4)GlcNAc(b1-3)Gal(b1-4)GlcNAc(b1-3)Gal(b1-4)GlcNAc(b1-3)Gal(b1-4)GlcNAc(b1-2)[GlcNAc(b1-3)Gal(b1-4)GlcNAc(b1-3)Gal(b1-4)GlcNAc(b1-3)Gal(b1-4)GlcNAc(b1-3)Gal(b1-4)GlcNAc(b1-6)]Man(a1-6)[GlcNAc(b1-3)Gal(b1-4)GlcNAc(b1-3)Gal(b1-4)GlcNAc(b1-3)Gal(b1-4)GlcNAc(b1-3)Gal(b1-4)GlcNAc(b1-2)Man(a1-3)]Man(b1-4)GlcNAc(b1-4)[Fuc(a1-6)]GlcNAc
Procedure, shortened: as §1

B1: Awp1 (Candida glabrata) (protein)
chain: MSLITIFAFLIKATLVLSLDILTPTTLTGDQTFNEDVSVVSSLTLNDGSQYLFNNLLQIAPSSASVTANALAAVSVFTFSLPPSSSLSNSGTLIISNSNTGPSTEQHIVITPNVMANTGTITLSLAHTNTDSSSTLIIDPVTFYNTGTINYESIGSETNDPSLTGNILSIGSSGRTLQNLGTINLNAANSYYLLGTITENSGSINVQKGFLYVNALDFIGNTINLSTTTALAFISPVSQVVRVRGVFFGNIIASVGSSGTFSYNTQTGILTVTTNGVYSYDIGCGYNPALMSGQQETLSFQGNPYDTFLVLVNQPIPSDLTCAAVSSSITPSSSVEPSSSVVPSSSVEPSSSVEPSSSVEPSSSVEPSSSVEPSSSVEPSSSVEPSSSVEPSSSVEPSSSVEPSSSVEPSSSVEPSSSVEPSSSVEPSSSVEPSSSVEPSSSVEPSSSVEPSSSVEPSSLIVPSSSVEPSSSVLPSSSVVPSSSVEPSTPPIPSSSVEPSSSVVPSSPAVPSSSVEPSTPPIPSSSVVSASVFDTSSTLPSSPSVPPSSVSPSTISTPSSSAAPSSFCPTCVSSGTPPAPSSSAIVPTSSAGGGNGGDNREPGAAGQPGAAGQPGAAGQPGAAGQPGAAGQPGAAGQPGAAGQPGAAGQPGAAGQPGAAGQPGAGFGVGSEQPTPGAGAGSGSADGNQSGTGSGTGNGQQGSGQAGSGQAGSGQEGSGQAGSGQAGSGQAGSGQAGSGQAGLDNTASGQSEGGQASAMDGDQSGRDGQSNSGSLLQPNAQQGTGSGTGSDIGADQASGESPGQIGDAQPGSGTDQSSGRHSLAAEARTSQSHSLAADARTRSTTRQTSVIAPDTAPGTASGTAPGTAPGTAVVTTFHGCGTVNHKGMINILLALALLVLL
- glycan array binding signal (z-score) [1]: -0.741
- glycan array binding signal (z-score) [2]: -0.809
- glycan array binding signal (z-score) [3]: 0.731
- glycan array binding signal (z-score) [4]: -1.09
- glycan array binding signal (z-score) [5]: 1.35
- glycan array binding signal (z-score) [6]: 0.152
- glycan array binding signal (z-score) [7]: 0.047
- glycan array binding signal (z-score) [8]: -1.03
- glycan array binding signal (z-score) [9]: -0.535
- glycan array binding signal (z-score) [10]: 0.964
- glycan array binding signal (z-score) [11]: -0.571
- glycan array binding signal (z-score) [12]: -1
- glycan array binding signal (z-score) [13]: -0.414
- glycan array binding signal (z-score) [14]: -0.929
- glycan array binding signal (z-score) [15]: 2.02
- glycan array binding signal (z-score) [16]: 1.19
- glycan array binding signal (z-score) [17]: -0.055
- glycan array binding signal (z-score) [18]: -0.178
- glycan array binding signal (z-score) [19]: -0.465
- glycan array binding signal (z-score) [20]: 0.166
- glycan array binding signal (z-score) [21]: 0.214
- glycan array binding signal (z-score) [22]: -0.505
- glycan array binding signal (z-score) [23]: 0.243
- glycan array binding signal (z-score) [24]: 0.68
- glycan array binding signal (z-score) [25]: 2
- glycan array binding signal (z-score) [26]: 0.251
- glycan array binding signal (z-score) [27]: 2.24
- glycan array binding signal (z-score) [28]: 0.222
- glycan array binding signal (z-score) [29]: 0.535
- glycan array binding signal (z-score) [30]: 0.405
